Reference: publication doi:10.1101/2022.03.27.486008
These are yes or no findings as the source states them, for the method shown. For some assays here: Binding seen in cells or lysates may run through a third protein. Some entries that bind do so weakly or less than the wild type. Tags and fused reporters may be left off the sequences shown.

T1: MKKK20-cYFP (Arabidopsis thaliana) (UniProt Q9SND6)
T1 sequence: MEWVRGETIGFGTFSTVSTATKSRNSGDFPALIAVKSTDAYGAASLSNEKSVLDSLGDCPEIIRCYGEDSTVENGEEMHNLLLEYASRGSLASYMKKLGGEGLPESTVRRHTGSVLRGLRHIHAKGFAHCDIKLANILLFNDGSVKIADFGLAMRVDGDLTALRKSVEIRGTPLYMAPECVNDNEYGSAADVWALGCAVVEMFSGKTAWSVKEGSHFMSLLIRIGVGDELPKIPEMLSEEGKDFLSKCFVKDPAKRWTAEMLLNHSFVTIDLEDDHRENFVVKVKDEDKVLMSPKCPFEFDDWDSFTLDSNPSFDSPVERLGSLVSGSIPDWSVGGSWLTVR

T2: MKKK20 fused to the GAL4 DNA-binding domain (BD-MKKK20) (Arabidopsis thaliana) (UniProt Q9SND6)
T2 sequence: T1 sequence

B1: CRK30, nYFP-tagged (protein, UniProt Q9LDT0 25-700)
chain: QLCSEKFGTFTPGGTFDKNRRIILSSLPSEVTAQDGFYNASIGTDPDQLYAMGMCIPGAKQKLCRDCIMDVTRQLIQTCPNQTAAIHWSGGGKTVCMARYYNQPSSRPLDLESVSIGYNVGNLSTNLTDFDRLWERLIAHMVTKASSASIKYLSFDNSRFYAADETNLTNSQMVYALMQCTPDVSPSNCNTCLKQSVDDYVGCCHGKQGGYVYRPSCIFRWDLYPFNGAFDLLTLAPPPSSQLQSPPPVTNKDEKTIHTGTIIGIVIVVAMVIIMALLALGVSVCRSRKKYQAFASETADDITTVGYLQFDIKDIEAATSNFLASNKIGQGGFGEVYKGTLSNGTEVAVKRLSRTSDQGELEFKNEVLLVAKLQHRNLVRLLGFALQGEEKILVFEFVPNKSLDYFLFGSTNPTKKGQLDWTRRYNIIGGITRGLLYLHQDSRLTIIHRDIKASNILLDADMNPKIADFGMARNFRDHQTEDSTGRVVGTFGYMPPEYVAHGQFSTKSDVYSFGVLILEIVSGRKNSSFYQMDGSVCNLVTYVWRLWNTDSSLELVDPAISGSYEKDEVTRCIHIGLLCVQENPVNRPALSTIFQMLTNSSITLNVPQPPGFFFRNRPESDTLRRGLEPDQYNNESVTCSIDNATITTLLGKTLASALCCITSTLFSKSMYRNTED
B2: CRK14, nYFP-tagged (protein, UniProt Q8H199 23-658)
chain: QECGKTGFFVPQSRYETNRGLLLSSLPSNVSARGGFYNSSIGQGPDRVYALGMCIEGAEPDVCSDCIEYASNLLLDTCLNQTEGLAWPEKRILCMVRYSNSSFFGSLKAEPHFYIHNVDDITSNLTEFDQVWEELARRMIASTTSPSSKRKYYAADVAALTAFQIIYALMQCTPDLSLEDCHICLRQSVGDYETCCNGKQGGIVYRASCVFRWELFPFSEAFSRISLAPPPQSPAFPTLPAVTNTATKKGSITISIGIVWAIIIPTVIVVFLVLLALGFVVYRRRKSYQGSSTDITITHSLQFDFKAIEDATNKFSESNIIGRGGFGEVFMGVLNGTEVAIKRLSKASRQGAREFKNEVVVVAKLHHRNLVKLLGFCLEGEEKILVYEFVPNKSLDYFLFDPTKQGQLDWTKRYNIIRGITRGILYLHQDSRLTIIHRDLKASNILLDADMNPKIADFGMARIFGIDQSGANTKKIAGTRGYMPPEYVRQGQFSTRSDVYSFGVLVLEIICGRNNRFIHQSDTTVENLVTYAWRLWRNDSPLELVDPTISENCETEEVTRCIHIALLCVQHNPTDRPSLSTINMMLINNSYVLPDPQQPGFFFPIISNQERDGLDSMNRSNPQTINDVTITDFEPR
B3: CRK21, nYFP-tagged (protein, UniProt Q3E9X6 25-690)
chain: APTCIQRSDFFKANGPYDINLRAMLSSLPSRVKDNEGFYKTPFKPGPNIAHGLGMCSRGTTTQDCSDCITSVSHTLLHTCPNQAEAIDWSSGDSLCLVRYSNHLINGSLDEDIIWAEYIEYKYNTSFGQTNLTEFKSTWQALMDRVINKVDGSLYANSIQELGSFPFRSIYAIAQCNKDLTKLNCEKCLQHLRIDNRSCCRGIQVGYIARTSCFMRWDLQPFLGLFINGMLPTPPSELDNGHSNTTKKDGKNISTGSIVAIAVVSVVVSTVLLALGYAVSRRRKAYQSFASENGYFSVSRRPRRPYGTASPDDATDDLTASSGSLRFDFRAIKAATSNFHKSNKLGHGGFGAVYKGMFPNGTEVAAKRLSKPSDQGEPEFKNEVLLVARLQHKNLVGLLGFSVEGEEKILVYEFVPNKSLDHFLFDPIKRVQLDWPRRHNIIEGITRGILYLHQDSRLTIIHRDLKASNILLDAEMNPKIADFGLARNFRVNQTEANTGRVVGTFGYMPPEYVANGQFSTKSDVYSFGVLILEIIGGKKNSSFHQIDGSVSNLVTHVWRLRNNGSLLELVDPAIGENYDKDEVIRCIHIGLLCVQENPDDRPSMSTIFRMLTNVSITLPVPQPPGFFFRERSEPNPLAERLLPGPSTSMSFTCSVDDASITSVRPR
B4: CML10, nYFP-tagged (protein, UniProt P30187 1-191)
chain: MANKFTRQQISEFREQFSVYDKNGDGHITTEEFGAVMRSLGLNLTQAELQEEINDSDLDGDGTINFTEFLCAMAKDTYSEKDLKKDFRLFDIDKNGFISAAEMRYVRTILRWKQTDEEIDEIIKAADVDGDGQINYREFARLMMAKNQGHDTKYDTTGGTLERDLAAGVAKNIIAAPMTDFIKNLFEALFS
B5: CRK12, nYFP-tagged (protein, UniProt O65472 19-659)
chain: LQTLPCINTTYFIPNSTYDTNRRVILSLLPSNVTSHFGFFNGSIGQAPNRVYAVGMCLPGTEEESCIGCLLSASNTLLETCLTEENALIWIANRTICMIRYSDTSFVGSFELEPHREFLSIHGYKTNETEFNTVWSRLTQRMVQEASSSTDATWSGAKYYTADVAALPDSQTLYAMMQCTPDLSPAECNLCLTESVVNYQSCCLGRQGGSIVRLSCAFRAELYPFGGAFTVMTARPLSQPPPSLIKKDSGKFSTETIAAIVVPIIVVAIIFLVLLVLSRLFARRRKSYQEIDLDQSGITTLHFQQLDFKTIEVATENFAKTNKLGQGGFGEVYKGTLVNGTEVAVKRLSKTSEQGAQEFKNEVVLVAKLQHRNLVKLLGYCLEPEEKILVYEFVPNKSLDYFLFDPTKQGQLDWTKRYNIIGGITRGILYLHQDSRLTIIHRDLKASNILLDADMIPKIADFGMARISGIDQSVANTKRIAGTFGYMPPEYVIHGQFSMKSDVYSFGVLILEIICGKKNRSFYQADTKAENLVTYVWRLWTNGSPLELVDLTISENCQTEEVIRCIHIALLCVQEDPKDRPNLSTIMMMLTNSSLILSVPQPPGFFVPQNKERDSFLSSQFTMGCTSQTKNDVTITNLDPR
B6: CRK16, nYFP-tagged (protein, UniProt O65476 27-662)
chain: QKCGKTGLFKPNDKYDINRHLLLSSLASNVSARGGFYNASIGQGPDRLYASGTCIQGSEPELCSACIDSAFIRVIKKCHNQTEALDWSSFNEEYPCMIRYSNRSFFGLLEMTPFFKNYNATDFQVNLTEFYQKWEALMLGVIADAISSPNPKFYGAGTGKIGIQTVYAFVLCSKDISPWNCSRCLRGNVDNYKLSCSGKPRGHSFSPSCYMRWDLYQFYGFIEYRASPTLPREKGRISELSDDGGKISTRNILGITVALAFFITVLLVLGYALSRRRKAYQEFATENDITTSGSLQFDFKAIEAATNNFQKSNKLGHGGFGEVFKGTFPNGTEVAVKRLSKISGQGEEEFKNEVLLVAKLQHRNLVRLLGFSVEGEEKILVYEYMPNKSLDYFLFDHRRRGQLDWRTRYNIIRGVTRGILYLHQDSRLTIIHRDLKAGNILLDVDMNPKIADFGVARNFRVDQTEATTGRVVGTFGYMPPEYVANGQFSMKSDVYSFGVLILEIIVGKKSSSFHEIDGSVGNLVTYVWRLWNNESFLELVDPAMGESYDKDEVIRCIHISLLCVQENPADRPTMSTVFQMLTNTFLTLPVPQLPGFVFRVRSEPNPLAERLEPGPSTTMSFACSIDDASITSVDLR
B7: CRK24, nYFP-tagged (protein, UniProt O65483 21-636)
chain: QVCLERSGFFTPNSTYDLNRRVLLSSLPLNVTAIDGFYTTWIGEHPNRAYGLGMCVPGTDAHSCSDCIILANARLLQNCTNQTEAIVWRIDRTVCLVRYSNRSFYSSLGMEILRSDNYTRDFQANLTDLEITWEALMIRMIDQASYLYYAAGIRKLETSISRIYGFVQCSRDLSLQNCTKCLQQNVVEYRSCCRGRQGGIILRPSCFIRWELYPFLGLFDNIRPRQKDGKSISTGAIVAIIVVPILLLALGVGLWKRRKAYKTKTTKIADDITTSGSLQFEFKAIEAATCNFHNVNKLGHGGFGEVYKGTFPNGTEVAVKRLSKTSGQGEEEFKNEVFLVAKLQHRNLVKLLGYAVKGDEKILVYEFLPNKSLDHFLFDPVKKGQLDWTRRYNIINGITRGIVYLHQDSRLTIIHRDLKAGNILLDADMNPKIVDFGVARNFRVDQTEATTARVVGTIGYMPPEYVTNGQFSTKSDVYSFGVLILEIIGGKKNSSINETDGSISNLVTYVWRLWNNEPLLELVDAPMGENYDRNEVIRCIHIGLLCVQENPADRPTMSTVFHMLTNTSITLHVPQPPGFVFRVRFKPNPLADRLQRGPSTSMSFSCSVSVTCVSPR
B8: CaM9, nYFP-tagged (protein, UniProt Q9S744 1-151)
chain: MADAFTDEQIQEFYEAFCLIDKDSDGFITKEKLTKVMKSMGKNPKAEQLQQMMSDVDIFGNGGITFDDFLYIMAQNTSQESASDELIEVFRVFDRDGDGLISQLELGEGMKDMGMKITAEEAEHMVREADLDGDGFLSFHEFSKMMIAASY
B9: CRK33, nYFP-tagged (protein, UniProt Q9LDN1 26-636)
chain: QQCNETGYFEPWKTYDTNRRQILTSLASKVVDHYGFYNSSIGKVPDEVHVMGMCIDGTEPTVCSDCLKVAADQLQENCPNQTEAYTWTPHKTLCFARYSNSSFFKRVGLHPLYMEHSNVDIKSNLTYLNTIWEALTDRLMSDASSDYNASLSSRRYYAANVTNLTNFQNIYALMLCTPDLEKGACHNCLEKAVSEYGNLRMQRGIVAWPSCCFRWDLYPFIGAFNLTLSPPPGSKRNISVGFFVAIVVATGVVISVLSTLVVVLVCRKRKTDPPEESPKYSLQYDLKTIEAATCTFSKCNMLGQGGFGEVFKGVLQDGSEIAVKRLSKESAQGVQEFQNETSLVAKLQHRNLVGVLGFCMEGEEKILVYEFVPNKSLDQFLFEPTKKGQLDWAKRYKIIVGTARGILYLHHDSPLKIIHRDLKASNILLDAEMEPKVADFGMARIFRVDQSRADTRRVVGTHGYISPEYLMHGQFSVKSDVYSFGVLVLEIISGKRNSNFHETDESGKNLVTYAWRHWRNGSPLELVDSELEKNYQSNEVFRCIHIALLCVQNDPEQRPNLSTIIMMLTSNSITLPVPQSPVYEGMDMFLPSIKSLPGSVNDSLIDDLVPR
B10: CML10 fused to the GAL4-activating domain (protein, UniProt P30187 1-191)
chain: B4 chain
B11: CaM9 fused to the GAL4-activating domain (protein, UniProt Q9S744 1-151)
chain: B8 chain

Biological target: T1, MKKK20-cYFP (Arabidopsis thaliana)
Test: split reporter

binding, binds:
B1, B2, B3, B4, B5, B6, B7, B8, B9

Biological target: T2, MKKK20 fused to the GAL4 DNA-binding domain (BD-MKKK20) (Arabidopsis thaliana)
Test: two-hybrid

binding, binds:
B10, B11
